Chains of the proteins cited; added tags and fusions are not shown. Lines headed by an entry give the natural chain unless they say otherwise; changes in a name come on top.
UniProt Q9NYM9: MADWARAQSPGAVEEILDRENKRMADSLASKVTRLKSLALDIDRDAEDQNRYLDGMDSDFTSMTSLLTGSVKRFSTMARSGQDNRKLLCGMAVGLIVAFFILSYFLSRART
UniProt Q13490, whole entry, looked up: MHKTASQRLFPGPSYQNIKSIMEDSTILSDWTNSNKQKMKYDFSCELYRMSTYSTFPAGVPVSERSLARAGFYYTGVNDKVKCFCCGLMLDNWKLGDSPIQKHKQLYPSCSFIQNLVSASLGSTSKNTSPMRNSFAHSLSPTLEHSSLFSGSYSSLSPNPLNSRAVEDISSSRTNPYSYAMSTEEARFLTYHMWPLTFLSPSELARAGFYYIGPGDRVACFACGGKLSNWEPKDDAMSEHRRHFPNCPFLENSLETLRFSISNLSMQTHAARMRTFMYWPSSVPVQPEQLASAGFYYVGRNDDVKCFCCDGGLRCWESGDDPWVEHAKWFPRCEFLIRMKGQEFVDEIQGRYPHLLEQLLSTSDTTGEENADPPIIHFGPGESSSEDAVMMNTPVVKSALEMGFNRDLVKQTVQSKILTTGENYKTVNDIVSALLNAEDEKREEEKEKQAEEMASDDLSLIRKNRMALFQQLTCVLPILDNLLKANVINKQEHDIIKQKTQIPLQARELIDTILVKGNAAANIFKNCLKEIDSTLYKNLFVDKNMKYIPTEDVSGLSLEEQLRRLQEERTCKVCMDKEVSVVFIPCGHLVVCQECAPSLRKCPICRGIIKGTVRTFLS
UniProt Q9H3K6: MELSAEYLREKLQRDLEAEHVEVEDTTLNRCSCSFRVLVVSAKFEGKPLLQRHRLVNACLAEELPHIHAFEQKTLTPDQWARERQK
UniProt Q9UIG0: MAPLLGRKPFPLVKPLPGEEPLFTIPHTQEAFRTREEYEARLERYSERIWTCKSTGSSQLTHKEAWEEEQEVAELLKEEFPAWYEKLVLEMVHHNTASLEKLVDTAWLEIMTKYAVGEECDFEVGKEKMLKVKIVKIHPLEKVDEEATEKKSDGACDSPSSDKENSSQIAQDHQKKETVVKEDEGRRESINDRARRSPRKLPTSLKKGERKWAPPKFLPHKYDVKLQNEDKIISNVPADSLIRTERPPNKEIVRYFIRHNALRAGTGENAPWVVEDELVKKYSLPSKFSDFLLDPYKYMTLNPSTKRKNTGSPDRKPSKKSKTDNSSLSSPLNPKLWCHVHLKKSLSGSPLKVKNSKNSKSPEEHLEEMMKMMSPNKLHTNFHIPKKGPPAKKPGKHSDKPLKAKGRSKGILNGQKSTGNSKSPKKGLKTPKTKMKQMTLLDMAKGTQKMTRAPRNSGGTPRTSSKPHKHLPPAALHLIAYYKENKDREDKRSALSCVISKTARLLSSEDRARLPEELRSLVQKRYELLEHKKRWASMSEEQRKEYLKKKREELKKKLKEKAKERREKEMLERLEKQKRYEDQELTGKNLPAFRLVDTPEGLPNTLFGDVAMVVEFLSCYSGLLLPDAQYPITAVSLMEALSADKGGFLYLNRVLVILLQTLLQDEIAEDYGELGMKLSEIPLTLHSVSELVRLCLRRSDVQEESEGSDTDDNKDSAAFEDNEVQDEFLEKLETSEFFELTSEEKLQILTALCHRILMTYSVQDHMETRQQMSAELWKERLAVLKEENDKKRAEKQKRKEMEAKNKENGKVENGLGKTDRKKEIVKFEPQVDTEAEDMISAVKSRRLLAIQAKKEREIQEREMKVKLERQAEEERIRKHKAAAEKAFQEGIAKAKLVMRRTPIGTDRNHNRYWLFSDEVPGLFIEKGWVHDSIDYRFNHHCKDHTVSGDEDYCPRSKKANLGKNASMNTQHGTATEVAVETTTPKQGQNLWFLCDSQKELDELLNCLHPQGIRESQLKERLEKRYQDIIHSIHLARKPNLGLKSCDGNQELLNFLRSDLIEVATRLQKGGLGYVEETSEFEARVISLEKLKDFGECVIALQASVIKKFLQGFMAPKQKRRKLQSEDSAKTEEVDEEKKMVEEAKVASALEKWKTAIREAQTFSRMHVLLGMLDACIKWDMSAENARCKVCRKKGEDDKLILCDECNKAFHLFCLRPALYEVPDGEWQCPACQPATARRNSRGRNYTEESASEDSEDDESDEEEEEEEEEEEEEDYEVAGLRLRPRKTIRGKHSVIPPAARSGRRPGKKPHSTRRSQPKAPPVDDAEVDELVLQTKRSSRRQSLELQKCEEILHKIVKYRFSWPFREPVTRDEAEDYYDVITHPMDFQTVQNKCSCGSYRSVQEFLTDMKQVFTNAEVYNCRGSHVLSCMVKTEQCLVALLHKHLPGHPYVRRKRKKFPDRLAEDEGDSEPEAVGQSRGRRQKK
UniProt Q14137: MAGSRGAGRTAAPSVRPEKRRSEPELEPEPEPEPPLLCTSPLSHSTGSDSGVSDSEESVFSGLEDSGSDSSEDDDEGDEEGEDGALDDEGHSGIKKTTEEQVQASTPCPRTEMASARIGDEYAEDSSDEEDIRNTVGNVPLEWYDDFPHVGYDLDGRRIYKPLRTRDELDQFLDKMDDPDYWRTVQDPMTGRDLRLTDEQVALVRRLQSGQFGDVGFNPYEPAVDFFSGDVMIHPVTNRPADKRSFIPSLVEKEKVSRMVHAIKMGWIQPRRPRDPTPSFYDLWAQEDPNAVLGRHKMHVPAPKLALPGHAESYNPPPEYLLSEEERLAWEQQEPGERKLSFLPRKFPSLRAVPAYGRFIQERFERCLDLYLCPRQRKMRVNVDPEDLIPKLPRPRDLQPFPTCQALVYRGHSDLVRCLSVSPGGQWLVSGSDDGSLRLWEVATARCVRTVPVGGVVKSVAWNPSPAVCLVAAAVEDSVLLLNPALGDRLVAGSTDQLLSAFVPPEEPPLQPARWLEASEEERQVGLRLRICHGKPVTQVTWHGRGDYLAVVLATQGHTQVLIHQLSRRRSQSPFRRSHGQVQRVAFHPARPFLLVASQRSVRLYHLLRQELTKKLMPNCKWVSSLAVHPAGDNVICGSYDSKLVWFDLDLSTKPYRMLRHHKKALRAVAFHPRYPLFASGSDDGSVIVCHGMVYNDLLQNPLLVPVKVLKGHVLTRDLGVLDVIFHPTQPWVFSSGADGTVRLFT
UniProt P53004: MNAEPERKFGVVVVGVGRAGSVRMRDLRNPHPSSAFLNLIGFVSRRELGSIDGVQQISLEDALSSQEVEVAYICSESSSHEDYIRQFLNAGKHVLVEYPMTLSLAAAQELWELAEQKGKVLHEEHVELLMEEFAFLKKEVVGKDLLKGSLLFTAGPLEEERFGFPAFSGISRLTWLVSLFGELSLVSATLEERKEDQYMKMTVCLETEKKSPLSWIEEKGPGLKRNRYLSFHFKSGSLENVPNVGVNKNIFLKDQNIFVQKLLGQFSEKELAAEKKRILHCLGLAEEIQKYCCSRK
UniProt Q6PJG6: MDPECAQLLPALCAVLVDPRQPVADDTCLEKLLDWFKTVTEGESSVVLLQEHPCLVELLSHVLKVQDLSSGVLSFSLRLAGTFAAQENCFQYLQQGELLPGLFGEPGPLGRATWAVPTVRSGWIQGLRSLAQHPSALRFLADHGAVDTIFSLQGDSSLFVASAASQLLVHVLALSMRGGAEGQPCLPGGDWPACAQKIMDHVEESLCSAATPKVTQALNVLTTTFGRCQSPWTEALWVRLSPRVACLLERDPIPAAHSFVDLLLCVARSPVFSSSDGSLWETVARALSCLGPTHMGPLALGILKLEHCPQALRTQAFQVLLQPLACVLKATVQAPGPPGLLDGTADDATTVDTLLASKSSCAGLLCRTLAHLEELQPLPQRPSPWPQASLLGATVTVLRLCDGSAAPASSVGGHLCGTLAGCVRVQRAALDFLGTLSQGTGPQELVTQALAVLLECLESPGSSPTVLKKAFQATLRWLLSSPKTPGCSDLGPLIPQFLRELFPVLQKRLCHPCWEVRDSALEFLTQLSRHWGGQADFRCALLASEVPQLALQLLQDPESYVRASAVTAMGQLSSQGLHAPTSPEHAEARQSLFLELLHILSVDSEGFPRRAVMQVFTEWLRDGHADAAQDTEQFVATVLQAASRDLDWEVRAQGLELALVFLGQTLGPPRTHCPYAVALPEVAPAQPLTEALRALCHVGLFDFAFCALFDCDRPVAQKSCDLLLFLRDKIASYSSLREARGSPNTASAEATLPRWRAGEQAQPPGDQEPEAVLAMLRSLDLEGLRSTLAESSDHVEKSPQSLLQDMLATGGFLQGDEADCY
UniProt Q9BXK5, whole entry, looked up: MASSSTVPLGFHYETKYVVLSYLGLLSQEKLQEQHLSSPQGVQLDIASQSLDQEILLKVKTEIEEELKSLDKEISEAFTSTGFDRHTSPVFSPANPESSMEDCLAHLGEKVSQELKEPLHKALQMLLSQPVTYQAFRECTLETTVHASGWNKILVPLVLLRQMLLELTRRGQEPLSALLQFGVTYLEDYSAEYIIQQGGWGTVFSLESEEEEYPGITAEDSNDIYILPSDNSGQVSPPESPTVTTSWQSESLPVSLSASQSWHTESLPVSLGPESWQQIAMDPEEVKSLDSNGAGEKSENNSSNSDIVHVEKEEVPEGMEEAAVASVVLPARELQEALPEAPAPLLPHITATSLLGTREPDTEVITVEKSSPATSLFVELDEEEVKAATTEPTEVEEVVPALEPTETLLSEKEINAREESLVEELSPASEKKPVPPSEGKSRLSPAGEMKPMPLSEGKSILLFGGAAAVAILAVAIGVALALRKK
UniProt Q8N9N5: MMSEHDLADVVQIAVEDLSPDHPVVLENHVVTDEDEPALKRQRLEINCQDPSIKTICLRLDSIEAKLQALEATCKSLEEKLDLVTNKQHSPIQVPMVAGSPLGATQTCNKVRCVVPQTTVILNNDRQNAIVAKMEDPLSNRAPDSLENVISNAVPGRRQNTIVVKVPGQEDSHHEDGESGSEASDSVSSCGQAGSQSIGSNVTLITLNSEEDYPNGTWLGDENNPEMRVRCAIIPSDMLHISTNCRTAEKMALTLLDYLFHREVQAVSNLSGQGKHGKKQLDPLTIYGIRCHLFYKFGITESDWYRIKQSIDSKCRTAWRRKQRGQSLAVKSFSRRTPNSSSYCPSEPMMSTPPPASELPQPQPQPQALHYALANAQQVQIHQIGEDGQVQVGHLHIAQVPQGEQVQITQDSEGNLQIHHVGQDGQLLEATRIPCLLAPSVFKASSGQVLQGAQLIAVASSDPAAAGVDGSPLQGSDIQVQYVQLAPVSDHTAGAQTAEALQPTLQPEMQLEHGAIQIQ
UniProt Q9BQE9, whole entry, looked up: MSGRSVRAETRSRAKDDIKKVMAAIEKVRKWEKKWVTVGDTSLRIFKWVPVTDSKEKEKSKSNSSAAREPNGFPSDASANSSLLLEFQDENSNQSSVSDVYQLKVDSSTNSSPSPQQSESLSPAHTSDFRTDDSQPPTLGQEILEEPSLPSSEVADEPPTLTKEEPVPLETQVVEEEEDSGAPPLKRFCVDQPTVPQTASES
UniProt O95817, whole entry, looked up: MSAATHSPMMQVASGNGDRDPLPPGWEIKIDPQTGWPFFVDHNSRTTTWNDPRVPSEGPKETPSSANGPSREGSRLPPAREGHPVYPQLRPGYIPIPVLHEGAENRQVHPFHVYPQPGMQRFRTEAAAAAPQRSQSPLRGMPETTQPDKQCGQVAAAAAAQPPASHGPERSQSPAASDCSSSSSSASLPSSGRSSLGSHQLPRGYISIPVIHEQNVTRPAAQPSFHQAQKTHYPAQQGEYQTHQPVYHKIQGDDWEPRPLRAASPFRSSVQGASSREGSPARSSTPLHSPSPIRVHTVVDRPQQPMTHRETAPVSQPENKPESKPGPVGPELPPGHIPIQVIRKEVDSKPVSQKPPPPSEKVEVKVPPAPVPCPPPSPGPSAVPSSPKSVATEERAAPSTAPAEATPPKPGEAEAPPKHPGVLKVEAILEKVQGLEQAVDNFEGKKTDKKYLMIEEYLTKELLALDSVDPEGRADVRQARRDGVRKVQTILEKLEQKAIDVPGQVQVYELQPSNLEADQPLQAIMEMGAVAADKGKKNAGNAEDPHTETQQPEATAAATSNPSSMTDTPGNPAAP
UniProt Q8TDN6: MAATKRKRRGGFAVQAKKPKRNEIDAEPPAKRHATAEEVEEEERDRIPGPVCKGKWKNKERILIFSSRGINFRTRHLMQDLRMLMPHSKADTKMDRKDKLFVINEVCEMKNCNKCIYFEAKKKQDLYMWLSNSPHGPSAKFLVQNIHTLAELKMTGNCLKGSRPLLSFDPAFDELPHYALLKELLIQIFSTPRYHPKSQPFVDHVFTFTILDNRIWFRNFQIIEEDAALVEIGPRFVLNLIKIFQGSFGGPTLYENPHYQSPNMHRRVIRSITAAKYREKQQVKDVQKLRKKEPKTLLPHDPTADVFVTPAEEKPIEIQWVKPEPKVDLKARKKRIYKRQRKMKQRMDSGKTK
UniProt P78537: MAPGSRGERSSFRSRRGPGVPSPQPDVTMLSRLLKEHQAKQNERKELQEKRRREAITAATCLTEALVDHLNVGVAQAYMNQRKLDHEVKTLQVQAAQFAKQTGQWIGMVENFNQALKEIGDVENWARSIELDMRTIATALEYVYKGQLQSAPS

Some of the results follow.
What follows are targets tested with CC1=C2C(=CC=C1)N=C(N(C2=O)C3=CC=CC=C3C)CN4C=NC5=C(N=CN=C54)N (assay: log2 fold change, soluble protein after heating vs DMSO (PISA); higher = thermal stabilisation; K562 lysate, 10 uM; active = over 0.2 and 3.5 SD of the protein, either way, in both replicates (recomputed)).
Summary of the method: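 Soluble protein was defined as the supernatant remaining after 21,000xg for 90 min, following pooling of heated aliquots and adjustment to 0.5% NP-40 at 4°C. Before that, crude K562 extract at 1 mg/mL protein in PBS pH 7.4 with 1 mM MgCl2 was treated with 10 μM compound for 30 min and heated for 3 min across 48°C-58°C. Quantification used TMTpro 16plex LC-MS/MS with channel sums equalised, and values are log-two fold changes in thermal stability relative to solvent controls from duplicates.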
With BACH1 (UniProt O14867) the log2 fold change was inactive: -0.007.
For BET1L (UniProt Q9NYM9), the log2 fold change was inactive: -0.108.
In the case of BRI3BP (UniProt Q8WY22), the log2 fold change is reported as inactive: 0.009.
In the case of BIRC2 (UniProt Q13490), the log2 fold change is reported as inactive: 0.005.
In the case of BOLA2 (UniProt Q9H3K6), the log2 fold change is reported as inactive: -0.019.
In the case of BTD isoform 3 (UniProt P43251), the log2 fold change is reported as inactive: -0.07.
In the case of BICD1 (UniProt Q96G01), the log2 fold change is reported as inactive: -0.022.
In the case of BAZ1B (UniProt Q9UIG0), the log2 fold change is reported as inactive: -0.055.
In the case of BTF3 (UniProt P20290), the log2 fold change is reported as inactive: -0.013.
BOP1 (UniProt Q14137) was tested, and the log2 fold change was inactive: 0.
For BLVRA (UniProt P53004), the log2 fold change was inactive: -0.026.
In the case of BRAT1 (UniProt Q6PJG6), the log2 fold change is reported as inactive: 0.027.
In the case of BCL2L13 (UniProt Q9BXK5), the log2 fold change is reported as inactive: 0.029.
For BANP (UniProt Q8N9N5), the log2 fold change was inactive: 0.139.
With BST2 (UniProt Q10589) the log2 fold change was inactive: -0.037.
BTF3L4 (UniProt Q96K17) was tested, and the log2 fold change was inactive: -0.021.
In the case of BAZ1A (UniProt Q9NRL2), the log2 fold change is reported as inactive: 0.005.
For BCL7B (UniProt Q9BQE9), the log2 fold change was inactive: -0.064.
In the case of BAG3 (UniProt O95817), the log2 fold change is reported as inactive: -0.016.
With BPNT1 (UniProt A6NF51) the log2 fold change was inactive: -0.076.
In the case of BAG5 isoform 2 (UniProt Q9UL15), the log2 fold change is reported as inactive: 0.047.
BRIX1 (UniProt Q8TDN6) was tested, and the log2 fold change was inactive: 0.017.
For BLOC1S1 (UniProt P78537), the log2 fold change was inactive: -0.014.

— the supplement of paper PMC10849652
